Laboratory results: the supplement of paper PMC6078165

System: BT20
Test: relative JC-1 red fluorescence (viability) vs pre-drug, coculture with fibroblast (fraction); higher = more viable cancer cells
Experimental: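 JC-1 labelled TNBC cells cocultured 1:1 (1,500 cells each) with CellTrace Violet stained primary or stromal fibroblasts in 384-well plates in FluoroBrite medium, treated with one of 42 anticancer drugs at 0.1, 1, 10 or 100 uM. JC-1 red fluorescence (mitochondrial integrity in cancer cells only) was read by plate reader every 8 h for 72 h. Values are normalised to each well's pre-drug value. The stock of one drug was tenfold lower, so its dose labels may be too high.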

N.N.[Cl][Pt][Cl] [Cisplatin]
relative JC-1 red fluorescence
Settings | 8 h | 16 h | 24 h | 32 h | 40 h | 48 h | 56 h | 64 h | 72 h
0.1 µM, coculture fibroblast: C12385 | 0.872 | 0.786 | 0.723 | 0.654 | 0.601 | 0.567 | 0.545 | 0.536 | 0.524
0.1 µM, coculture fibroblast: H6013 | 0.94882 | 0.918 | 0.891 | 0.85 | 0.828 | 0.805 | 0.813 | 0.791 | 0.771
0.1 µM, coculture fibroblast: H6019 | 0.8469 | 0.782 | 0.754 | 0.702 | 0.652 | 0.64 | 0.606 | 0.58 | 0.562
0.1 µM, coculture fibroblast: H6076 | 0.866 | 0.8936 | 0.818 | 0.791 | 0.77 | 0.757 | 0.751 | 0.751 | 0.743
0.1 µM, coculture fibroblast: H6231 | 0.846 | 0.871 | 0.791 | 0.727 | 0.691 | 0.64 | 0.608 | 0.59 | 0.582
0.1 µM, coculture fibroblast: HADF | 0.89 | 0.948 | 0.9 | 0.872 | 0.845 | 0.809 | 0.799 | 0.779 | 0.762
0.1 µM, coculture fibroblast: HCFa | 0.9222 | 0.8678 | 0.8426 | 0.787 | 0.757 | 0.725 | 0.698 | 0.679 | 0.64
0.1 µM, coculture fibroblast: HCPF | 0.9862 | 0.8676 | 0.79 | 0.743 | 0.703 | 0.663 | 0.635 | 0.628 | 0.605
0.1 µM, coculture fibroblast: HHSteC | 0.913 | 0.881 | 0.876 | 0.819 | 0.791 | 0.77 | 0.747 | 0.736 | 0.709
0.1 µM, coculture fibroblast: HMF | 0.936 | 0.851 | 0.768 | 0.701 | 0.668 | 0.623 | 0.599 | 0.58 | 0.572
0.1 µM, coculture fibroblast: HPFa | 0.924 | 0.86561 | 0.862 | 0.793 | 0.774 | 0.74 | 0.719 | 0.699 | 0.658
0.1 µM, coculture fibroblast: HUF | 0.882 | 0.802 | 0.762 | 0.676 | 0.629 | 0.602 | 0.588 | 0.576 | 0.566
0.1 µM, coculture fibroblast: Hs5 | 0.926 | 0.8722 | 0.796 | 0.747 | 0.699 | 0.666 | 0.641 | 0.612 | 0.59
0.1 µM, coculture fibroblast: Hs27A | 0.732 | 0.757 | 0.934 | 0.952 | 0.912 | 0.902 | 0.892 | 0.872 | 0.825
0.1 µM, coculture fibroblast: Hs343T | 0.844 | 0.854 | 0.752 | 0.693 | 0.659 | 0.616 | 0.573 | 0.549 | 0.526
0.1 µM, coculture fibroblast: WS1 | 0.83 | 0.734 | 0.7 | 0.63 | 0.585 | 0.563 | 0.537 | 0.518 | 0.511
1 µM, coculture fibroblast: C12385 | 0.877 | 0.819 | 0.797 | 0.732 | 0.691 | 0.672 | 0.656 | 0.64 | 0.636
1 µM, coculture fibroblast: H6013 | 0.911 | 0.899 | 0.9 | 0.858 | 0.839 | 0.838 | 0.851 | 0.838 | 0.833
1 µM, coculture fibroblast: H6019 | 0.8458 | 0.7774 | 0.778 | 0.71 | 0.657 | 0.637 | 0.611 | 0.586 | 0.565
1 µM, coculture fibroblast: H6076 | 0.98 | 0.8925 | 0.825 | 0.792 | 0.767 | 0.752 | 0.755 | 0.751 | 0.734
1 µM, coculture fibroblast: H6231 | 0.9584 | 0.875 | 0.8084 | 0.754 | 0.718 | 0.679 | 0.661 | 0.639 | 0.626
1 µM, coculture fibroblast: HADF | 0.936 | 0.887 | 0.843 | 0.8013 | 0.797 | 0.771 | 0.7531 | 0.749 | 0.7247
1 µM, coculture fibroblast: HCFa | 0.91 | 0.831 | 0.8 | 0.74 | 0.702 | 0.676 | 0.656 | 0.633 | 0.59
1 µM, coculture fibroblast: HCPF | 0.876 | 0.902 | 0.827 | 0.7687 | 0.728 | 0.692 | 0.677 | 0.669 | 0.647
1 µM, coculture fibroblast: HHSteC | 0.911 | 0.885 | 0.866 | 0.818 | 0.788 | 0.771 | 0.766 | 0.745 | 0.731
1 µM, coculture fibroblast: HMF | 0.946 | 0.824 | 0.7334 | 0.673 | 0.632 | 0.585 | 0.575 | 0.56 | 0.535
1 µM, coculture fibroblast: HPFa | 0.897 | 0.871 | 0.87 | 0.799 | 0.781 | 0.749 | 0.737 | 0.72 | 0.677
1 µM, coculture fibroblast: HUF | 0.877 | 0.82 | 0.794 | 0.714 | 0.664 | 0.629 | 0.616 | 0.602 | 0.589
1 µM, coculture fibroblast: Hs5 | 0.919 | 0.8262 | 0.776 | 0.73 | 0.715 | 0.699 | 0.69 | 0.687 | 0.682
1 µM, coculture fibroblast: Hs27A | 0.874 | 0.818 | 0.888 | 0.885 | 0.875 | 0.894 | 0.898 | 0.892 | 0.866
1 µM, coculture fibroblast: Hs343T | 0.951 | 0.8248 | 0.723 | 0.655 | 0.625 | 0.581 | 0.548 | 0.525 | 0.508
1 µM, coculture fibroblast: WS1 | 0.8575 | 0.79178 | 0.763 | 0.687 | 0.635 | 0.603 | 0.58 | 0.56 | 0.554
10 µM, coculture fibroblast: C12385 | 0.884 | 0.8025 | 0.729 | 0.634 | 0.543 | 0.504 | 0.479 | 0.475 | 0.461
10 µM, coculture fibroblast: H6013 | 0.947 | 0.888 | 0.839 | 0.745 | 0.703 | 0.684 | 0.707 | 0.694 | 0.682
10 µM, coculture fibroblast: H6019 | 0.861 | 0.823 | 0.787 | 0.678 | 0.604 | 0.592 | 0.563 | 0.544 | 0.536
10 µM, coculture fibroblast: H6076 | 0.866 | 0.864 | 0.719 | 0.677 | 0.658 | 0.644 | 0.651 | 0.657 | 0.649
10 µM, coculture fibroblast: H6231 | 0.783 | 0.8488 | 0.692 | 0.604 | 0.554 | 0.506 | 0.484 | 0.468 | 0.454
10 µM, coculture fibroblast: HADF | 0.86 | 0.888 | 0.7745 | 0.655 | 0.631 | 0.596 | 0.594 | 0.594 | 0.578
10 µM, coculture fibroblast: HCFa | 0.935 | 0.868 | 0.804 | 0.687 | 0.639 | 0.608 | 0.603 | 0.594 | 0.571
10 µM, coculture fibroblast: HCPF | 0.837 | 0.887 | 0.774 | 0.699 | 0.65 | 0.571 | 0.539 | 0.533 | 0.51
10 µM, coculture fibroblast: HHSteC | 0.92 | 0.853 | 0.814 | 0.704 | 0.652 | 0.619 | 0.614 | 0.611 | 0.588
10 µM, coculture fibroblast: HMF | 0.953 | 0.882 | 0.721 | 0.646 | 0.61 | 0.575 | 0.564 | 0.547 | 0.527
10 µM, coculture fibroblast: HPFa | 0.944 | 0.904 | 0.876 | 0.77 | 0.746 | 0.709 | 0.72 | 0.719 | 0.699
10 µM, coculture fibroblast: HUF | 0.882 | 0.776 | 0.693 | 0.575 | 0.521 | 0.482 | 0.479 | 0.465 | 0.462
10 µM, coculture fibroblast: Hs5 | 0.934 | 0.873 | 0.71 | 0.624 | 0.566 | 0.522 | 0.512 | 0.493 | 0.484
10 µM, coculture fibroblast: Hs27A | 0.85 | 0.811 | 0.9933 | 0.898 | 0.8524 | 0.85 | 0.8571 | 0.8552 | 0.814
10 µM, coculture fibroblast: Hs343T | 0.9841 | 0.831 | 0.594 | 0.487 | 0.432 | 0.384 | 0.355 | 0.346 | 0.33
10 µM, coculture fibroblast: WS1 | 0.82847 | 0.737 | 0.631 | 0.496 | 0.394 | 0.352 | 0.321 | 0.302 | 0.294
100 µM, coculture fibroblast: C12385 | 0.8756 | 0.715 | 0.713 | 0.654 | 0.603 | 0.595 | 0.583 | 0.578 | 0.573
100 µM, coculture fibroblast: H6013 | 0.825 | 0.592 | 0.617 | 0.521 | 0.498 | 0.482 | 0.495 | 0.482 | 0.465
100 µM, coculture fibroblast: H6019 | 0.82 | 0.508 | 0.449 | 0.396 | 0.355 | 0.339 | 0.317 | 0.304 | 0.292
100 µM, coculture fibroblast: H6076 | 0.91001 | 0.6186 | 0.523 | 0.49 | 0.474 | 0.453 | 0.455 | 0.444 | 0.423
100 µM, coculture fibroblast: H6231 | 0.789 | 0.643 | 0.562 | 0.533 | 0.512 | 0.488 | 0.482 | 0.475 | 0.469
100 µM, coculture fibroblast: HADF | 0.857 | 0.575 | 0.615 | 0.521 | 0.507 | 0.486 | 0.487 | 0.477 | 0.457
100 µM, coculture fibroblast: HCFa | 0.832 | 0.682 | 0.732 | 0.65 | 0.633 | 0.607 | 0.607 | 0.595 | 0.573
100 µM, coculture fibroblast: HCPF | 0.913 | 0.67 | 0.505 | 0.467 | 0.447 | 0.419 | 0.414 | 0.41 | 0.39
100 µM, coculture fibroblast: HHSteC | 0.834 | 0.654 | 0.69 | 0.604 | 0.596 | 0.577 | 0.585 | 0.571 | 0.556
100 µM, coculture fibroblast: HMF | 0.9096 | 0.605 | 0.474 | 0.433 | 0.429 | 0.41 | 0.412 | 0.411 | 0.399
100 µM, coculture fibroblast: HPFa | 0.8106 | 0.639 | 0.68 | 0.618 | 0.616 | 0.595 | 0.608 | 0.6 | 0.575
100 µM, coculture fibroblast: HUF | 0.84973 | 0.5474 | 0.507 | 0.44 | 0.402 | 0.383 | 0.379 | 0.368 | 0.364
100 µM, coculture fibroblast: Hs5 | 0.905 | 0.629 | 0.56 | 0.521 | 0.505 | 0.486 | 0.482 | 0.473 | 0.46
100 µM, coculture fibroblast: Hs27A | 0.841 | 0.696 | 0.792 | 0.648 | 0.624 | 0.618 | 0.637 | 0.624 | 0.603
100 µM, coculture fibroblast: Hs343T | 0.878 | 0.49 | 0.369 | 0.334 | 0.325 | 0.3 | 0.303 | 0.294 | 0.29
100 µM, coculture fibroblast: WS1 | 0.828 | 0.589 | 0.501 | 0.392 | 0.334 | 0.31 | 0.297 | 0.283 | 0.274

Values are relative to the signal before dosing, not to a vehicle control; the signal also falls without drug.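 Labels refer to human fibroblasts, largely primary: uterine (C12385, HUF), lung (H6013), bone (Hs27A), adrenal (HADF), skin (WS1), plus mammary HMF and breast cancer-associated Hs343T. Cancer lines are basal-like or mesenchymal-like triple-negative breast cancer. The paper counts as hits responses shifting over 3x the replicate standard deviation. The tissue of the other fibroblasts is not given here.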
